This note sets out measurements from paper PMC8034648, “Oligomeric complexes formed by Redβ single strand annealing protein in its different DNA bound states”.

Weaker means in comparison with the reference protein, sequence or condition of that experiment. Where a protein sequence is shown, tags need not be part of it.

The target of the data set is T1, Redβ single strand annealing protein (bacteriophage λ) (UniProt P03698).
T1 sequence: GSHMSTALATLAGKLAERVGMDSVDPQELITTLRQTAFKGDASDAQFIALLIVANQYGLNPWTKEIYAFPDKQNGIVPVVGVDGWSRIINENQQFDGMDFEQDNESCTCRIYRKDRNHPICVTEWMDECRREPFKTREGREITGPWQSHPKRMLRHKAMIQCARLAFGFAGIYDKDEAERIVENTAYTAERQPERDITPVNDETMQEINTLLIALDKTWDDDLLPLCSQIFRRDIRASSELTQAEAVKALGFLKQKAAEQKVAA
Description: EMSA. The note with it: ssDNA alone, PBS, 10 mM Mg2+ or ammonium acetate, EMSA: 10 uM Redβ, 50 uM nt DNA, 37 C, in PBS, or 20 mM Tris-HCl pH 7.5/10 mM NaCl/10 mM MgCl2, or 50 mM ammonium acetate pH 7.0, recombinant protein, single-stranded DNA. (Mobility shift assays separate free from complexed probe on a gel.)

Regarding “CCATCCGCAAAAATCGAGCTATGCAGGGCGATTCTGCTCTAAGCCATCCG [Cy5 50mer]”, the binding result (label: 5'-Cy5) was “binds more weakly”. Regarding “GCGGATGGCTTAGAGCAGAATCGCCCTGCATAGCTCGATTTTTGCGGATG [Cy3 50mer]”, where the note is “label: 5'-Cy3”, the binding result is recorded as “binds more weakly”.
